Experimental data reported in PubChem BioAssay AID248 (DTP/NCI, 2004).
The list shows only some results of the screen, not a fair sample: it covers a few groups of compounds. Not every dose and run of a compound is shown. T/C is the treated group as % of the vehicle group. Some entries give survivors of the animals treated and no T/C: the source holds a T/C of zero for them, seemingly a mark for toxic or unscored doses. Some doses without a T/C left all or most animals alive at the check, yet need not have been tolerated: survival well below the control is almost never listed, so the zero probably covers shortened survival too. Counts of survivors are from the toxicity check (mostly the fifth day) where no day follows; animals may have died later. Schedules are NCI's codes, taken here to give the interval after Q, in days (D) or hours (H), and the number of doses after X. Where survival is the endpoint, the PubChem record calls one and a half times the control and up active, and a quarter to a half above the control has no call in these data; cut-offs in other NCI protocols can differ. Some T/C values carry the count of animals alive at the toxicity check (mostly the fifth day); where neither a count nor a note follows, no animal had died by that day. Some doses were run more than once; their values stand side by side, smallest first. Some schedule codes hold Z or #, which are not explained here. Some entries show no survivor count and are marked so; the dose need not have been tolerated.

Tested on: L1210 leukemia ip in BDF1 mice, survival T/C
Experiment: NCI In Vivo Anticancer Drug Screen. Data for tumor model L1210 Leukemia (intraperitoneal) in B6D2F1 (BDF1) mice
Settings: T/C endpoint: mean survival time, higher T/C = longer survival
[1] = dose: 80.0 mg/kg/injection, schedule: Q04DX003 (ip), vehicle: Klucel (hydroxypropylcellulose) (HPC)
[2] = dose: 100.0 mg/kg/injection, schedule: Q04DX003 (ip), vehicle: saline

Question: Which results are given for `Cc1c([N+](=O)[O-])c(C)c([N+](=O)[O-])c(Nc2c([N+](=O)[O-])c(C)c([N+](=O)[O-])c(C)c2[N+](=O)[O-])c1[N+](=O)[O-]`?
Answer: T/C (dose: 5.0 mg/kg/injection, schedule: Q01DX001 (ip), vehicle: saline): 103 % of control [survivor count not shown]; T/C (dose: 10.0 mg/kg/injection, schedule: Q01DX001 (ip), vehicle: saline): 97 % of control [survivor count not shown]; T/C (dose: 11.0 mg/kg/injection, schedule: Q01DX001 (ip), vehicle: saline): 102 % of control [survivor count not shown]; T/C (dose: 17.0 mg/kg/injection, schedule: Q01DX001 (ip), vehicle: saline): 98 % of control [survivor count not shown]; T/C (dose: 20.0 mg/kg/injection, schedule: Q01DX001 (ip), vehicle: saline): 106 % of control [survivor count not shown]; T/C (dose: 25.0 mg/kg/injection, schedule: Q01DX001 (ip), vehicle: saline): 102 % of control [survivor count not shown]; T/C (dose: 40.0 mg/kg/injection, schedule: Q01DX001 (ip), vehicle: saline): 90 [survivor count not shown], 96 [survivor count not shown], 100 [survivor count not shown], 102 % of control [survivor count not shown]; T/C (dose: 60.0 mg/kg/injection, schedule: Q01DX001 (ip), vehicle: saline): 107 % of control [survivor count not shown]; T/C (dose: 90.0 mg/kg/injection, schedule: Q01DX001 (ip), vehicle: saline): 104 % of control [survivor count not shown]; T/C (dose: 135.0 mg/kg/injection, schedule: Q01DX001 (ip), vehicle: saline): 101 [survivor count not shown] and 109 % of control [survivor count not shown]

Question: What does the source list for `O=P1(N(CCCl)C(CCl)CCl)NCCCO1` (stereo unspecified)?
Answer: T/C (dose: 12.5 mg/kg/injection, schedule: Q01DX Z (ip), vehicle: other): 94 % of control; T/C (dose: 25.0 mg/kg/injection, schedule: Q01DX Z (ip), vehicle: other): 103 % of control; T/C (dose: 50.0 mg/kg/injection, schedule: Q01DX Z (ip), vehicle: other): 92 % of control; T/C (dose: 100.0 mg/kg/injection, schedule: Q01DX Z (ip), vehicle: other): 117 % of control

Question: For `C1C[N-]1.C1C[N-]1.[Cl][Pt+2][Cl]`, which T/C (dose: 1.62 mg/kg/injection, schedule: Q01DX009 (ip), vehicle: Klucel (hydroxypropylcellulose) (HPC)) is on record?
Answer: 116 % of control

Question: And the T/C (dose: 2.5 mg/kg/injection, schedule: Q01DX009 (ip), vehicle: Klucel (hydroxypropylcellulose) (HPC))?
Answer: 106 % of control

Question: And the T/C (dose: 2.6 mg/kg/injection, schedule: Q01DX009 (ip), vehicle: Klucel (hydroxypropylcellulose) (HPC))?
Answer: 102 % of control

Question: What about the T/C (dose: 3.25 mg/kg/injection, schedule: Q01DX009 (ip), vehicle: Klucel (hydroxypropylcellulose) (HPC)) of the same compound?
Answer: 122 % of control

Question: And the T/C (dose: 4.0 mg/kg/injection, schedule: Q01DX009 (ip), vehicle: Klucel (hydroxypropylcellulose) (HPC))?
Answer: 116 % of control

Question: What about the T/C (dose: 5.0 mg/kg/injection, schedule: Q01DX009 (ip), vehicle: Klucel (hydroxypropylcellulose) (HPC)) of the same compound?
Answer: 100 % of control

Question: And the T/C (dose: 5.0 mg/kg/injection, schedule: Q04DX003 (ip), vehicle: Klucel (hydroxypropylcellulose) (HPC))?
Answer: 117 and 121 % of control

Question: What about the T/C (dose: 5.0 mg/kg/injection, schedule: Q04DX003 (ip), vehicle: saline) of the same compound?
Answer: 110 % of control

Question: And the T/C (dose: 6.0 mg/kg/injection, schedule: Q01DX009 (ip), vehicle: Klucel (hydroxypropylcellulose) (HPC))?
Answer: 122 % of control

Question: And the T/C (dose: 6.25 mg/kg/injection, schedule: Q04DX003 (ip), vehicle: saline)?
Answer: 106 % of control

Question: What about the T/C (dose: 6.5 mg/kg/injection, schedule: Q01DX009 (ip), vehicle: Klucel (hydroxypropylcellulose) (HPC)) of the same compound?
Answer: 129 % of control

Question: What about the T/C (dose: 8.8 mg/kg/injection, schedule: Q01DX009 (ip), vehicle: Klucel (hydroxypropylcellulose) (HPC)) of the same compound?
Answer: 151 % of control

Question: And the T/C (dose: 10.0 mg/kg/injection, schedule: Q01DX009 (ip), vehicle: Klucel (hydroxypropylcellulose) (HPC))?
Answer: 107 % of control

Question: What about the T/C (dose: 10.0 mg/kg/injection, schedule: Q04DX003 (ip), vehicle: Klucel (hydroxypropylcellulose) (HPC)) of the same compound?
Answer: 109, 114, 131, 151 % of control

Question: What about the T/C (dose: 10.0 mg/kg/injection, schedule: Q04DX003 (ip), vehicle: saline) of the same compound?
Answer: 119 % of control

Question: What about the T/C (dose: 12.5 mg/kg/injection, schedule: Q04DX003 (ip), vehicle: saline) of the same compound?
Answer: 112 % of control

Question: What about the T/C (dose: 13.0 mg/kg/injection, schedule: Q01DX009 (ip), vehicle: Klucel (hydroxypropylcellulose) (HPC)) of the same compound?
Answer: 125 % of control

Question: What about the T/C (dose: 13.0 mg/kg/injection, schedule: Q04DX003 (ip), vehicle: Klucel (hydroxypropylcellulose) (HPC)) of the same compound?
Answer: 109 and 134 % of control

Question: What about the T/C (dose: 13.3 mg/kg/injection, schedule: Q01DX009 (ip), vehicle: Klucel (hydroxypropylcellulose) (HPC)) of the same compound?
Answer: 127 % of control

Question: And the T/C (dose: 20.0 mg/kg/injection, schedule: Q01DX009 (ip), vehicle: Klucel (hydroxypropylcellulose) (HPC))?
Answer: 113, 135, 137 % of control

Question: What about the T/C (dose: 20.0 mg/kg/injection, schedule: Q04DX003 (ip), vehicle: Klucel (hydroxypropylcellulose) (HPC)) of the same compound?
Answer: 110, 121, 122, 130, 150, 152 % of control

Question: And the T/C (dose: 20.0 mg/kg/injection, schedule: Q04DX003 (ip), vehicle: saline)?
Answer: 119 % of control

Question: And the T/C (dose: 25.0 mg/kg/injection, schedule: Q04DX003 (ip), vehicle: saline)?
Answer: 137 % of control

Question: What about the T/C (dose: 30.0 mg/kg/injection, schedule: Q01DX009 (ip), vehicle: Klucel (hydroxypropylcellulose) (HPC)) of the same compound?
Answer: 119 and 133 % of control [5 of 6 alive]

Question: What about the T/C (dose: 30.0 mg/kg/injection, schedule: Q04DX003 (ip), vehicle: Klucel (hydroxypropylcellulose) (HPC)) of the same compound?
Answer: 124 and 147 % of control

Question: What about the survivor count (dose: 40.0 mg/kg/injection, schedule: Q01DX009 (ip), vehicle: Klucel (hydroxypropylcellulose) (HPC)) of the same compound?
Answer: 10 of 10

Question: And the T/C (dose: 40.0 mg/kg/injection, schedule: Q04DX003 (ip), vehicle: Klucel (hydroxypropylcellulose) (HPC))?
Answer: 115, 122, 132, 158 % of control

Question: What about the T/C (dose: 40.0 mg/kg/injection, schedule: Q04DX003 (ip), vehicle: saline) of the same compound?
Answer: 115 % of control

Question: And the T/C (dose: 45.0 mg/kg/injection, schedule: Q04DX003 (ip), vehicle: Klucel (hydroxypropylcellulose) (HPC))?
Answer: 96 % of control

Question: And the T/C (dose: 50.0 mg/kg/injection, schedule: Q04DX003 (ip), vehicle: saline)?
Answer: 93 % of control

Question: What about the T/C (dose: 70.0 mg/kg/injection, schedule: Q04DX003 (ip), vehicle: Klucel (hydroxypropylcellulose) (HPC)) of the same compound?
Answer: 119 % of control

Question: And the survivor count (dose: 80.0 mg/kg/injection, schedule: Q01DX009 (ip), vehicle: Klucel (hydroxypropylcellulose) (HPC))?
Answer: 0 of 10

Question: And the T/C [1]?
Answer: 101 and 105 % of control

Question: And the survivor count [1]?
Answer: 6 of 6

Question: And the survivor count (dose: 80.0 mg/kg/injection, schedule: Q04DX003 (ip), vehicle: saline)?
Answer: 1 of 6

Question: What about the T/C (dose: 100.0 mg/kg/injection, schedule: Q04DX003 (ip), vehicle: Klucel (hydroxypropylcellulose) (HPC)) of the same compound?
Answer: 96 % of control

Question: What about the survivor count [2] of the same compound?
Answer: 6 of 6

Question: And the T/C (dose: 150.0 mg/kg/injection, schedule: Q04DX003 (ip), vehicle: Klucel (hydroxypropylcellulose) (HPC))?
Answer: 108 % of control [4 of 6 alive]

Question: What about the T/C (dose: 160.0 mg/kg/injection, schedule: Q04DX003 (ip), vehicle: Klucel (hydroxypropylcellulose) (HPC)) of the same compound?
Answer: 104 % of control

Question: What about the survivor count (dose: 225.0 mg/kg/injection, schedule: Q04DX003 (ip), vehicle: Klucel (hydroxypropylcellulose) (HPC)) of the same compound?
Answer: 2 of 6

Question: What about the survivor count (dose: 335.0 mg/kg/injection, schedule: Q04DX003 (ip), vehicle: Klucel (hydroxypropylcellulose) (HPC)) of the same compound?
Answer: 1 of 6

Question: `CCC(Sc1ccccc1[N+](=O)[O-])([N+](=O)[O-])[N+](=O)[O-]` was tested. Which T/C (dose: 100.0 mg/kg/injection, schedule: Q01DX009 (ip), vehicle: acetone) did it give?
Answer: 96 % of control

Question: And the T/C [2]?
Answer: 91 % of control

Question: And the T/C (dose: 200.0 mg/kg/injection, schedule: Q01DX009 (ip), vehicle: acetone)?
Answer: 91 % of control

Question: What about the T/C (dose: 200.0 mg/kg/injection, schedule: Q04DX003 (ip), vehicle: saline) of the same compound?
Answer: 93 % of control [5 of 6 alive]

Question: What about the survivor count (dose: 400.0 mg/kg/injection, schedule: Q01DX009 (ip), vehicle: acetone) of the same compound?
Answer: 6 of 6

Question: And the T/C (dose: 400.0 mg/kg/injection, schedule: Q04DX003 (ip), vehicle: saline)?
Answer: 95 % of control [5 of 6 alive]
